# Test results reported in paper doi:10.1101/2022.03.29.486232.
# T1: leucine-rich glioma-inactivated 1 (LGI1), native, from mouse brain (mouse (endogenous in mouse brain)) (UniProt Q9JIA1)
# T1 sequence: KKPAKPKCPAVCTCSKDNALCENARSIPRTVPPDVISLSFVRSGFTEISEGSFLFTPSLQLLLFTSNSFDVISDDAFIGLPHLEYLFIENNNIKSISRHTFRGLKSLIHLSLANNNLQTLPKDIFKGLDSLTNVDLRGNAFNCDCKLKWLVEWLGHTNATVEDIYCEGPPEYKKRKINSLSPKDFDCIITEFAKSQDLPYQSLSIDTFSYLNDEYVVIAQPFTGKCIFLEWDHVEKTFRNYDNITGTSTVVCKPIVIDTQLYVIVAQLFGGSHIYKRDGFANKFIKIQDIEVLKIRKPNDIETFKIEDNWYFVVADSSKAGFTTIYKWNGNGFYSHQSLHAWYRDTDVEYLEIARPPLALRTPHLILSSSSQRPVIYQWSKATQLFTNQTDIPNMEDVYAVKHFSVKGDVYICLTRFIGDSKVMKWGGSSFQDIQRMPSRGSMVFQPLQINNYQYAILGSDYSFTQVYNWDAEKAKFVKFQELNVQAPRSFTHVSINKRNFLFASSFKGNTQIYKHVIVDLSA
# B1: excitatory amino acid transporter EAA1 (GLAST-1) (protein, UniProt P56564 1-543)
# chain: MTKSNGEEPRMGGRMERLQQGVRKRTLLAKKKVQSLTKEDVKSYLFRNAFVLLTVTAVIVGTILGFALRPYKMSYREVKYFSFPGELLMRMLQMLVLPLIISSLVTGMAALDSKASGKMGMRAVVYYMTTTIIAVVIGIIIVIIIHPGKGTKENMYREGKIVQVTAADAFLDLIRNMFPPNLVEACFKQFKTSYEKRSFKVPIQSNETLLGAVINNVSEAMETLTRIREEMVPVPGSVNGVNALGLVVFSMCFGFVIGNMKEQGQALREFFDSLNEAIMRLVAVIMWYAPLGILFLIAGKIVEMEDMGVIGGQLAMYTVTVIVGLLIHAVIVLPLLYFLVTRKNPWVFIGGLLQALITALGTSSSSATLPITFKCLEENNGVDKRITRFVLPVGATINMDGTALYEALAAIFIAQVNNFDLNFGQIITISITATAASIGAAGIPQAGLVTMVIVLTSVGLPTDDITLIIAVDWFLDRLRTTTNVLGDSLGAGIVEHLSRHELKNRDVEMGNSVIEENEMKKPYQLIAQDNEPEKPVADSETKM
# B2: Bcas1 (protein, UniProt Q80YN3 1-633)
# chain: MGNQMSVPLRPGDQEHDPGADTCKVTSDNECVQNGNPVVLSTRVIQHYEEVDLGISSSKDNVATSSPKTMEAQAVGDASGKNLGKEAKTKAPAARSHFFLTLSRPVPGRPGDQGTDSSAASGRFDVSPSAAPENKDPSEHGALPVAAAPGQAPDKTPGCPEAKQQTLPATGPLAPSPPESQAEAPAQDKDFGFLNRFFKLDKGRESAPVNSQPKEAKGSEDPEQATEAPAVPGNPHGVSAGEDIVDSEQRGQDVDTLSYSVPGDPEVPGTTKEDPQVVDTTENSSSIMSFFKTLVSPNKTETKKDPEDTKATKADSVCDGHAAGQKMSETQAKSKKKRLDSPRLGLSFRKLFRHKDTENSPTTSANLKSDKANFTPQETRGKTKATKSCSPPPPPPEPTSEGRDSGKEKAGPTSLPLGKLFWKKSVKEDTLSTGAEENAVCESPVETVRLEEVESSLQTVDLSEETQPEPTDVKVKEESKPRKTPLMAFLRQMSVRSSEGIPRSEESNVKDSSCQTSNSVEKTPSPPEPEPAGTAQKNKETSSSKDKKSVDKKSATENSKQKNGKQEVREPAPCVQPPTVEANAMQTGDKTPKKSEKRRQSLGGFLKGLGPKRMSDAQVQTDPVSIGPVGKSK
# B3: mitochondrial amino acid transporter GHC1 (Slc25a22) (protein, UniProt Q9D6M3 1-323)
# chain: MADKQISLPAKLINGGIAGLIGVTCVFPIDLAKTRLQNQQNGQRMYASMSDCLIKTIRSEGYFGMYRGAAVNLTLVTPEKAIKLAANDFFRHQLSKDGQKLTLPKEMLAGCGAGTCQVIVTTPMEMLKIQLQDAGRIAAQRKILAAQAQLSAQGGAQPSVEAPAPPRPTATQLTRDLLRNHGIAGLYKGLGATLLRDVPFSIVYFPLFANLNQLGRPSSEEKSPFYVSFLAGCVAGSAAAVAVNPCDVVKTRLQSLERGVNEDTYSGFLDCARKIWRHEGPSAFLKGAYCRALVIAPLFGIAQVVYFLGIAESLLGLLQEPQA
# B4: Glutathione S-transferase Mu 1 (GSTM1) (enzyme, UniProt P10649 1-218)
# chain: MPMILGYWNVRGLTHPIRMLLEYTDSSYDEKRYTMGDAPDFDRSQWLNEKFKLGLDFPNLPYLIDGSHKITQSNAILRYLARKHHLDGETEEERIRADIVENQVMDTRMQLIMLCYNPDFEKQKPEFLKTIPEKMKLYSEFLGKRPWFAGDKVTYVDFLAYDILDQYRMFEPKCLDAFPNLRDFLARFEGLKKISAYMKSSRYIATPIFSKMAHWSNK
# B5: stratifin (14-3-3 S) (protein, UniProt O70456 1-248)
# chain: MERASLIQKAKLAEQAERYEDMAAFMKSAVEKGEELSCEERNLLSVAYKNVVGGQRAAWRVLSSIEQKSNEEGSEEKGPEVKEYREKVETELRGVCDTVLGLLDSHLIKGAGDAESRVFYLKMKGDYYRYLAEVATGDDKKRIIDSARSAYQEAMDISKKEMPPTNPIRLGLALNFSVFHYEIANSPEEAISLAKTTFDEAMADLHTLSEDSYKDSTLIMQLLRDNLTLWTADSAGEEGGEAPEEPQS
# Target: T1, leucine-rich glioma-inactivated 1 (LGI1), native, from mouse brain (mouse (endogenous in mouse brain))
# Assay: affinity purification with mass spectrometry
row,binding,Binder
1,binds,B1
2,binds,B2
3,binds,B3
4,binds,B4
5,binds,B5

# These are yes or no findings as the source states them, for the method shown. In cells and extracts the contact can be indirect. Here binding means that the protein was enriched with, or labelled near, the bait; the list need not be complete. Where a sequence is shown, tags or fusion partners need not be part of it.
